From US6947790B2, “Neurocognitive function EEG measurement method and system” (priority 2000, dated 2005)

Test system: healthy adults
Assay: Experiment 1: stepwise linear discriminant analysis, treatment vs placebo
Assay type: in vivo, human
Details: post treatment

## CCO [alcohol, ethanol]
  EEG LDA Analysis: time of peak difference: 2.5 to 3 h

Some results come without the dose or concentration used.
